Assay: general procedure: Fmoc solid-phase peptide synthesis; 2-chlorotrityl resin (Chempep, 0.81 mmol/g)
Conditions: conjugation step

Substance | conjugation yield
(2S,3S,4S,5R,6S)-6-(4-(((2-(((7R,11S,19aS,26R,30S,38aS)-26-(3-((4-((14S,17S)-1-(2,5-dioxo-2,5-dihydro-1H-pyrrol-1-yl)-14-isopropyl-12,15-dioxo-17-(3-ureidopropyl)-3,6,9-trioxa-13,16-diazaoctadecan-18-amido)benzyl)oxy)quinoline-2-carboxamido)-11,30-diisopropyl-12,15,31,34-tetramethyl-6,10,13,16,19,25,29,32,35,38-decaoxohexatriacontahydro-2H,6H-dipyrido[1,2-a:1′,2′-q][1,4,7,10,13,17,20,23,26,29]decaazacyclodotriacontin-7-yl)carbamoyl)quinolin-3-yl)oxy)methyl) phenoxy)-3,4,5-trihydroxytetrahydro-2H-pyran-2-carboxylic acid | 66% yield
Benzyl ((7R,10aS,22aS,29R,32aS,44aS)-29-(3-(benzyloxy)quinoline-2-carboxamido)-18,40-dimethyl-6,10,16,19,22,28,32,38,41,44-decaoxotetratetracontahydrotetrapyrido[1,2-a:1′,2′-j:1″,2″-q:1′″,2′″-z][1,4,7,10,13,17,20,23,26,29]decaazacyclodotriacontin-7-yl)carbamate (Compound 238) | 83%
[(2-{[(3R,7S,16S,23R,27S,36S)-23-[3-({4-[(2S)-5-(carbamoylamino)-2-[(2S)-2-[3-(2-{2- [2-(2,5-dioxopyrrol-1-yl)ethoxy]ethoxy}ethoxy)propanamido]-3-methylbutanamido]pentanamido]phenyl}methoxy)quinoline-2-amido]-7,27-diisopropyl-8,11,28,31-tetramethyl-2,6,9,12,15,22,26,29,32,35-decaoxo-1,5,8,11,14,21,25,28,31,34-decaazatricyclo[34.4.0.0^16,21]tetracontan-3-yl]carbamoyl}quinolin-3-yl)oxy]methoxy ([2-acetamidoethoxy(hydroxy)phosphoryl]oxy)phosphinic acid | 49% yield
(2S,3S,4S,5R,6S)-6-((2-(((7R,11S,19aS,26R,30S,38aS)-26-(3-((4-((14S,17S)-1-(2,5-dioxo-2,5-dihydro-1H-pyrrol-1-yl)-14-isopropyl-12,15-dioxo-17-(3-ureidopropyl)-3,6,9-trioxa-13,16-diazaoctadecan-18-amido)benzyl)oxy)quinoline-2-carboxamido)-15,34-diethyl-11,30-diisopropyl-12,31-dimethyl-6,10,13,16,19,25,29,32,35,38-decaoxohexatriacontahydro-2H,6H-dipyrido[1,2-a:1′,2′-q][1,4,7,10,13,17,20,23,26,29]decaazacyclodotriacontin-7-yl)carbamoyl)quinolin-3-yl)oxy)-3,4,5-trihydroxytetrahydro-2H-pyran-2-carboxylic acid | 37% yield
(2S,3S,4S,5R,6S)-6-((2-(((7R,11S,19aS,26R,30S,38aS)-30-cyclohexyl-26-(3-((4-((14S,17S)-1-(2,5-dioxo-2,5-dihydro-1H-pyrrol-1-yl)-14-isopropyl-12,15-dioxo-17-(3-ureidopropyl)-3,6,9-trioxa-13,16-diazaoctadecan-18-amido)benzyl)oxy)quinoline-2-carboxamido)-11-isopropyl-12,15,31,34-tetramethyl-6,10,13,16,19,25,29,32,35,38-decaoxohexatriacontahydro-2H,6H-dipyrido[1,2-a:1′,2′-q][1,4,7,10,13,17,20,23,26,29]decaazacyclodotriacontin-7-yl)carbamoyl)quinolin-3-yl)oxy)-3,4,5-trihydroxytetrahydro-2H-pyran-2-carboxylic acid | 60% yield
(2S,3S,4S,5R,6S)-6-((2-(((7R,11S,19aS,26R,30S,38aS)-11-((S)-sec-butyl)-7-(3-((4-((14S,17S)-1-(2,5-dioxo-2,5-dihydro-1H-pyrrol-1-yl)-14-isopropyl-12,15-dioxo-17-(3-ureidopropyl)-3,6,9-trioxa-13,16-diazaoctadecan-18-amido)benzyl)oxy)quinoline-2-carboxamido)-30-isopropyl-12,15,31,34-tetramethyl-6,13,16,19,25,29,32,35,38-nonaoxotetratriacontahydro-2H,6H,10H-dipyrido[2,1-b1: 2′,1′-l][1]oxa[4,7,10,13,17,20,23,26,29]nonaazacyclodotriacontin-26-yl)carbamoyl)quinolin-3-yl)oxy)-3,4,5-trihydroxytetrahydro-2H-pyran-2-carboxylic acid | 30% yield

Same assay, conditions: cyclisation step

Substance | cyclisation yield [% yield]
Dibenzyl ((7R,11S,19aS,26R,30S,38aS)-11-((R)-1-(tert-butoxy)ethyl)-30-isopropyl-12,15,31,34-tetramethyl-6,10,13,16,19,25,29,32,35,38-decaoxohexatriacontahydro-2H,6H-dipyrido[1,2-a:1′,2′-q][1,4,7,10,13,17,20,23,26,29]decaazacyclodotriacontine-7,26-diyl)dicarbamate | 91
Benzyl tert-butyl ((7R,8R,11S,19aS,26R,30S,38aS)-11,30-di((S)-sec-butyl)-8,12,15,31,34-pentamethyl-6,10,13,16,19,25,29,32,35,38-decaoxotetratriacontahydro-2H,6H,10H-dipyrido[2,1-b1: 2′,1′-l][1]oxa[4,7,10,13,17,20,23,26,29]nonaazacyclodotriacontine-7,26-diyl)dicarbamate | 71

Same assay, conditions: late stage modification step

Substance | step yield [% yield]
N,N′-((13S,16R,19aS,32S,35R,38aS)-13,32-diisopropyl-8,14,27,33-tetramethyl-6,9,12,15,19,25,28,31,34,38-decaoxohexatriacontahydro-2H,6H-dipyrido[2,1-c: 2′,1′-s][1,4,7,10,13,17,20,23,26,29]decaazacyclodotriacontine-16,35-diyl)bis(3-hydroxyquinoline-2-carboxamide) | 8
N,N′-((7R,8R,11S,19aS,26R,30S,38aS)-11,30-di((S)-sec-butyl)-8,12,15,31,34-pentamethyl-6,10,13,16,19,25,29,32,35,38-decaoxotetratriacontahydro-2H,6H,10H-dipyrido[2,1-b1: 2′,1′-l][1]oxa[4,7,10,13,17,20,23,26,29]nonaazacyclodotriacontine-7,26-diyl)bis(3-hydroxyquinoline-2-carboxamide) | 66
N,N′-((7R,8R,11S,19aS,26R,30S,38aS)-11,30-di((S)-sec-butyl)-8,12,15,31,34-pentamethyl-6,10,13,16,19,25,29,32,35,38-decaoxotetratriacontahydro-2H,6H,10H-dipyrido[2,1-b1: 2′,1′-l][1]oxa[4,7,10,13,17,20,23,26,29]nonaazacyclodotriacontine-7,26-diyl)bis(3-(benzyloxy)quinoline-2-carboxamide) | 23
N-((7R,10aS,22aS,29R,32aS,44aS)-29-amino-18,40-dimethyl-6,10,16,19,22,28,32,38,41,44-decaoxotetratetracontahydrotetrapyrido[1,2-a:1′,2′-j:1″,2″-q:1′″,2′″-z][1,4,7,10,13,17,20,23,26,29]decaazacyclodotriacontin-7-yl)-3-hydroxyquinoline-2-carboxamide (Compound 239) | 91
N,N′-((7R,11S,19aS,26R,30S,38aS)-11,30-diisopropyl-12,15,31,34-tetramethyl-6,10,13,16,19,25,29,32,35,38-decaoxotetratriacontahydro-2H,6H,10H-dipyrido[2,1-b1: 2′,1′-l][1]oxa[4,7,10,13,17,20,23,26,29]nonaazacyclodotriacontine-7,26-diyl)bis(3-hydroxyquinoline-2-carboxamide) | 57
N,N′-((7R,11S,19aS,26R,30S,38aS)-12,31-diethyl-11,30-diisopropyl-15,34-dimethyl-6,10,13,16,19,25,29,32,35,38-decaoxohexatriacontahydro-2H,6H-dipyrido[1,2-a:1′,2′-q][1,4,7,10,13,17,20,23,26,29]decaazacyclodotriacontine-7,26-diyl)bis(3-hydroxyquinoline-2-carboxamide) | 30
N,N′-((7R,11S,19aS,26R,30S,38aS)-11-((S)-sec-butyl)-30-isopropyl-12,15,31,34-tetramethyl-6,13,16,19,25,29,32,35,38-nonaoxotetratriacontahydro-2H,6H,10H-dipyrido[2,1-b1: 2′,1′-l][1]oxa[4,7,10,13,17,20,23,26,29]nonaazacyclodotriacontine-7,26-diyl)bis(3-hydroxyquinoline-2-carboxamide) | 42
N-((7R,11S,19aS,26R,30S,38aS)-7-amino-11,30-diisopropyl-12,15,31,34-tetramethyl-6,13,16,19,25,29,32,35,38-nonaoxotetratriacontahydro-2H,6H,10H-dipyrido[2,1-b1: 2′,1′-l][1]oxa[4,7,10,13,17,20,23,26,29]nonaazacyclodotriacontin-26-yl)-3-hydroxyquinoline-2-carboxamide (Compound 254) | 39
N,N′-((7R,8R,11S,19aS,26R,27R,30S,38aS)-11,30-diisopropyl-8,12,15,27,31,34-hexamethyl-6,10,13,16,19,25,29,32,35,38-decaoxodotriacontahydro-2H,6H,10H,25H-dipyrido[2,1-b1: 2′,1′-l][1,17]dioxa[4,7,10,13,20,23,26,29]octaazacyclodotriacontine-7,26-diyl)bis(3-hydroxyquinoline-2-carboxamide) | 70

Same assay, conditions: late stage modification step, 2 steps (Boc removal + chromophore coupling)

Substance | step yield
N,N′-((7R,11S,19aS,26R,30S,38aS)-11,30-diisopropyl-12,15,31,34-tetramethyl-6,10,13,16,19,25,29,32,35,38-decaoxohexatriacontahydro-2H,6H-dipyrido[1,2-a:1′,2′-q][1,4,7,10,13,17,20,23,26,29]decaazacyclodotriacontine-7,26-diyl)bis(3-(benzyloxy)quinoline-2-carboxamide) | 82% yield, 2 steps

Same assay, conditions: late stage modification step, over 2 steps

Substance | step yield [% over 2 steps]
(7R,11S,19aS,26R,30S,38aS)-7,26-diamino-11-isopropyl-12,15,31,34-tetramethyl-30-phenyltetracosahydro-2H,6H-dipyrido[1,2-a:1′,2′-q] | 53

Reference: US20240376154A1 (ZYMEWORKS BC INC., priority 2023, published 2024)
